Assay results published in PubChem BioAssay AID504834 (National Center for Advancing Translational Sciences (NCATS), 2011).
The whole screen tested about 320,000 compounds, of which about 22,000 (6.9%) were called active. Inconclusive means that the source gave no clear call. Such entries were picked first, then a sample of the others. Calls follow the shape of the dose curve; as a rule, active = well fitted inhibition curve with a large enough effect; inconclusive = small, poorly fitted or top-dose-only effect, or another doubt; inactive = no such curve, though single readings can be large or run the other way. Potencies beside an inconclusive call are fits to weak or partial responses and may not hold up.

experiment: Primary qHTS for delayed death inhibitors of the malarial parasite plastid, 96 hour incubation; settings: P. falciparum luciferase reporter growth; series mostly up to 28.7 µM
Outline: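 Erythrocytes infected with luciferase-expressing P. falciparum were dispensed at 2% hematocrit and 0.05% parasitemia (final), then incubated with compounds 96 hours at 37 C in 5% CO2. Luminescence after detection reagent addition reported growth.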
Potency is read from the fitted curve at half-maximal effect.

| Compound | Potency |
| --- | --- |
| O=C(NCc1ccc(F)cc1)Nc1cccc(Cl)c1 | inactive |
| COc1cc(/C=C(\C#N)c2nc3ccc(C)cc3[nH]2)c([N+](=O)[O-])cc1OC | inconclusive: 10.4 µM [inhibitor, single point] |
| O=C(Nc1ccc(NC(=O)c2ccc(Cl)cc2Cl)cc1)c1cccs1 | inconclusive: 11.7 µM [inhibitor, single point] |
| CCCC(c1nnnn1C1CCCCC1)N1CCN(c2ncccn2)CC1 (configuration not stated) | inconclusive: 18.5 µM [inhibitor, single point] |
| Cc1ccc(OCCn2cnc3sc(C(N)=O)c(C)c3c2=O)cc1 | inactive |
| CCSc1nc2sc3c(c2c(=O)n1CC)CC(C)(C)OC3 | inconclusive: 8.28 µM [inhibitor, single point] |
| Cc1ccccc1NC(=O)c1cccc(OCc2c(C)noc2C)c1 | inconclusive: 1.85 µM [inhibitor, partial curve] |
| Cc1ccccc1C(=O)c1cccn1CC(=O)O | inconclusive: 4.15 µM [inhibitor, single point] |
| Cc1ccc(C(=O)Nc2ncc([N+](=O)[O-])s2)cc1 | inactive |
| CNC(=O)c1ccc(NC(=O)Cc2ccc(S(=O)(=O)N3CCOCC3)s2)cc1 | active: 14.7 µM |
| COc1ccc(/C=N/NC(=O)c2cc(-c3ccc4c(c3)OCO4)n[nH]2)cc1OC | active: 11.7 µM |
| CCOc1ccc(CN(C(=O)c2oc3cc(C)ccc3c2C)C2CCS(=O)(=O)C2)cc1 (configuration not stated) | inconclusive: 10.4 µM [inhibitor, partial curve, poor fit] |
| CC(C)CC(=O)NC(=S)NCCc1ccccc1 | inconclusive: 10.4 µM [inhibitor, partial curve, poor fit] |
| CCCCC(=O)NC1(C(F)(F)F)NC(=O)N(Cc2ccccc2)C1=O (configuration not stated) | inconclusive: 18.5 µM [inhibitor, single point] |
| CCN1CCN(c2ncnc3sc(C)c(-c4ccccc4)c23)CC1 | inactive |
| O=C(CCc1nc(-c2ccccc2)no1)N1CCCC1 | inconclusive: 18.5 µM [inhibitor, single point] |
| NS(=O)(=O)c1ccc(NC(=S)N2CCN(c3ccccc3Cl)CC2)cc1 | inconclusive: 9.28 µM [inhibitor, single point] |
| COc1ccc(C(=O)NCC(=O)OCc2csc(-c3ccccc3)n2)cc1 | inactive |
| COc1ccccc1-c1ccc(SCC(=O)NC2CCCC2)nn1 | inactive |
| CC(C)(C)c1ccc(C(=O)/C=C2\NC(=O)CS2)cc1 | inactive |
| Cc1ccnc(NC(=O)CCC(=O)N(CC(=O)NCC2CCCO2)Cc2ccc(F)cc2)c1 (configuration not stated) | inconclusive: 13.1 µM [inhibitor, single point] |
| CCOc1ccc2nc(SCC(=O)NCc3ccco3)sc2c1 | inactive |
| CC1=C(C#N)c2nc(N)c(C#N)c(C)c2/C1=C\c1ccc(C)cc1 | inconclusive: 14.7 µM [inhibitor, partial curve, poor fit] |
| COc1cc(C)c(NC(=S)NCCCN2CCOCC2)cc1OC | inactive |

Given as labelled records: entries from further up
Cc1ccccc1NC(=O)c1cccc(OCc2c(C)noc2C)c1
  Potency: inconclusive: 1.85 µM [inhibitor, partial curve]
Cc1ccccc1C(=O)c1cccn1CC(=O)O
  Potency: inconclusive: 4.15 µM [inhibitor, single point]
Cc1ccc(C(=O)Nc2ncc([N+](=O)[O-])s2)cc1
  Potency: inactive
CNC(=O)c1ccc(NC(=O)Cc2ccc(S(=O)(=O)N3CCOCC3)s2)cc1
  Potency: active: 14.7 µM

Further compounds

| Compound | Potency |
| --- | --- |
| Oc1ccc(COCc2ccc(F)cc2)c2cccnc12 | active: 4.15 µM |
| COCCC(=O)N1CCC(n2nccc2NC(=O)c2ccccc2C)CC1 | inconclusive: 18.5 µM [inhibitor, single point] |
| O=C(c1cccc(S(=O)(=O)N2CCOCC2)c1)N1CCN(c2ccccc2)CC1 | inconclusive: 0.037 µM [inhibitor, full curve, poor fit] |
| O=C(O)c1ccc2c(=O)n3c(nc2c1)/C(=C/c1ccc(C(F)(F)F)cc1)CC3 | inactive |
| CC(NC(=O)CSCc1ccccc1Br)c1ccccc1 (configuration not stated) | inactive |
| COc1ccc(-c2cc(C(=O)Nc3cc(OC)c(OC)c(OC)c3)no2)cc1OC | inconclusive: 9.28 µM [inhibitor, single point] |
| Cc1nn(C)cc1S(=O)(=O)N1CCN(c2ccc(F)cc2)CC1 | inconclusive: 18.5 µM [inhibitor, single point] |
| OC(CN1CCNCC1)Cn1c2ccccc2c2ccccc21 (configuration not stated) | inconclusive: 11.7 µM [inhibitor, single point] |
| Cc1ccc(S(=O)(=O)N2CCCC2C(=O)N(C)Cc2cccs2)cc1 (configuration not stated) | inconclusive: 10.4 µM [inhibitor, single point] |
| CO/N=C(/CS(=O)(=O)c1ccc(C)cc1)c1ccc(OC)cc1 | inconclusive: 0.0657 µM [inhibitor, full curve, poor fit] |
| CCN1CCN(c2cc(C)c3cc(NC(=S)NCCCN4CCc5ccccc5C4)ccc3n2)CC1 | inconclusive: 4.15 µM [inhibitor, single point] |
| CCCOc1ccccc1Nc1nnc(C)c(=O)[nH]1 | active: 13.1 µM |
| COc1ccc(-c2c(-c3ccccc3)c(C(=O)C(=O)NCCCN(C)C)n3ccc4cc(OC)c(OC)cc4c23)cc1OC | active: 2.94 µM |
| COc1ccc(N2CCN(S(=O)(=O)c3ccc(-c4cnc(C5CC5)o4)cc3)CC2)cc1 | inconclusive: 9.28 µM [inhibitor, single point] |
| Cc1c(CN2CCC(CO)(CCOc3ccccc3)CC2)[nH]c2ccc(Cl)cc12 | inconclusive: 0.185 µM [inhibitor, partial curve, poor fit] |
| O=S1(=O)N=CN(Cc2cccc(F)c2)c2ccccc21 | inconclusive: 18.5 µM [inhibitor, single point] |
| CCC1=NN2C(=N)/C(=C/c3c(C)nn(-c4ccccc4)c3Cl)C(=O)N=C2S1 | inconclusive: 4.15 µM [inhibitor, partial curve] |
| O=C(NP(=O)(N1CCOCC1)N1CCOCC1)C1=C(N2CCOCC2)/C(=C\c2ccccc2)CC1 | inactive |
| Clc1cccc(CN2CCN(Cc3ccco3)CC2)c1 | inactive |
| O=C(NCCc1ccc(F)cc1)C1CCCO1 (configuration not stated) | inconclusive: 11.7 µM [inhibitor, single point] |
| CN(C)c1ccc(/C=C/C=C2/C(=O)NC(=O)N(c3ccccc3)C2=O)cc1 | inactive |
| COc1ccc(Cl)cc1NC(=O)c1noc(C)c1[N+](=O)[O-] | inactive |
| CCOc1c(O)ccc(/C=C2\SC(=S)NC2=O)c1[N+](=O)[O-] | inconclusive: 1.65 µM [inhibitor, partial curve, poor fit] |
